Values of other authors in patent US4168206A, “Impregnated disk method for testing antifungal susceptibility” (Philadelphia College of Osteopathic Medicine, priority 1977, dated 1979).
At least one compound was matched to its structure with a doubt left.

Conditions: cited from earlier work

C[C@@H]1[C@H](O)[C@@H](C)/C=C/C=C/CC/C=C/C=C/C=C/C=C/C(O[C@H]2O[C@H](C)[C@@H](O)[C@H](N)[C@@H]2O)CC2O[C@](O)(CC(O)C(O)CCC(O)CC(O)CC(O)CC(=O)O[C@H]1C)CC(O)C2C(=O)O (stereo partly shown) [Nystatin, nystatin]
light sensitivity: light-sensitive
